Measured data: PubChem BioAssay AID504774 (Drosophila RNAi Screening Center, 2011)
The deposit covers about 23,000 reagents; below is a random part of those that have a named target and a result. 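Values are quantile-normalised luminescence on an arbitrary scale; higher means more cells surviving MMS.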 Names joined by + are all predicted targets of the reagent. Not all columns of the deposit are shown.

Test: 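Fly genes whose loss alters survival after alkylation damage to DNA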 (primary screen)
Cell system: Drosophila Kc167 cells
Reagent: long dsRNA against Drosophila genes, about 0.25 µg dsRNA per well
Time to read-out: about 6 days: 3 days knock-down, then 3 days with or without MMS
Treatment: methyl methanesulphonate 0.004% (w/v) for 3 days after knock-down
Read-out: 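Viability in wells given MMS, read as ATP luminescence, normalised by quantiles plate by plate and averaged across replicates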
Direction: mean viability with MMS: higher = more surviving cells after MMS

Or47b [DRSC07492] showed mean viability with MMS 3.69e6.
Against TotF [DRSC02305], the entry reads mean viability with MMS 3.48e6.
For CG42518 + MED9 [DRSC06917], the entry reads mean viability with MMS 3.38e6.
With knock-down of mod [DRSC16999], the record shows mean viability with MMS 3.56e6.
Silencing of Sln [DRSC07133] resulted in: mean viability with MMS 3.50e6.
Depletion of Atg18b [DRSC03108] resulted in: mean viability with MMS 3.55e6.
Against RabX6 [DRSC08223], the entry reads mean viability with MMS 3.41e6.
Knock-down of pk [DRSC06178] came out at: mean viability with MMS 3.69e6.
pk [DRSC07664] gave mean viability with MMS 3.57e6.
For pk [DRSC22156], the entry reads mean viability with MMS 3.57e6.
Against CG8353 [DRSC03084], the values are mean viability with MMS 3.57e6.
After knock-down of RhoGAP93B [DRSC15488], the record shows mean viability with MMS 3.46e6.
Against CG42445 [DRSC10858] the deposit lists mean viability with MMS 3.50e6.
zfh2 [DRSC17178] gave mean viability with MMS 3.51e6.
GstO1 [DRSC10688] scored mean viability with MMS 3.56e6.
obe [DRSC15736] showed mean viability with MMS 3.36e6.
For CG2116 [DRSC18206], the values are mean viability with MMS 3.67e6.
With knock-down of CG6933 [DRSC10751] the results were mean viability with MMS 3.58e6.
CG34331 [DRSC20679] gave mean viability with MMS 3.51e6.
After knock-down of SCCRO [DRSC10844], the record shows mean viability with MMS 3.39e6.
Silencing of ClC-b [DRSC07220] resulted in: mean viability with MMS 3.66e6.

5 successive reagents from above, quoted:
obe [DRSC15736]: mean viability with MMS = 3.36e6
CG2116 [DRSC18206]: mean viability with MMS = 3.67e6
CG6933 [DRSC10751]: mean viability with MMS = 3.58e6
CG34331 [DRSC20679]: mean viability with MMS = 3.51e6
SCCRO [DRSC10844]: mean viability with MMS = 3.39e6

Next records:
With knock-down of CG10931 [DRSC06015], the screen gave mean viability with MMS 3.50e6.
Depletion of Ran-like [DRSC10918] gave: mean viability with MMS 3.60e6.
For CG6330 [DRSC16022], the entry reads mean viability with MMS 3.56e6.
For nod [DRSC18900], the values are mean viability with MMS 3.52e6.
nod [DRSC20356] scored mean viability with MMS 3.60e6.
CG12209 [DRSC06119] scored mean viability with MMS 3.48e6.
Silencing of Polr3A [DRSC19766] came out at: mean viability with MMS 3.27e6.
With knock-down of Atg18a [DRSC10943] the results were mean viability with MMS 3.53e6.
Muc96D [DRSC13709] showed mean viability with MMS 3.58e6.
Depletion of Muc96D [DRSC21609] came out at: mean viability with MMS 3.78e6.
Against Muc96D [DRSC23213], the entry reads mean viability with MMS 3.49e6.
After knock-down of Frq2 [DRSC20245], the record shows mean viability with MMS 3.50e6.
Rbf2 [DRSC16816] gave mean viability with MMS 3.57e6.
Sfp93F [DRSC13505] gave mean viability with MMS 1.83e6.
For CG9098 [DRSC03136], the entry reads mean viability with MMS 3.74e6.
For CG9098 [DRSC22501], the entry reads mean viability with MMS 3.65e6.
After knock-down of Sptz [DRSC15758], the screen gave mean viability with MMS 3.45e6.
With knock-down of CG5250 [DRSC15752], the record shows mean viability with MMS 3.53e6.
For GstE7 [DRSC06677] the deposit lists mean viability with MMS 3.56e6.
Cib2 [DRSC04535] scored mean viability with MMS 3.61e6.
For CR33315 [DRSC22947] the deposit lists mean viability with MMS 3.57e6.
Against dao [DRSC01960] the deposit lists mean viability with MMS 3.64e6.
For BicD [DRSC02006] the deposit lists mean viability with MMS 3.26e6.
Against CG34328 [DRSC19256], the entry reads mean viability with MMS 3.40e6.
